Where a name gives a salt, the structure may show the parent alone. Some entries share one result that the patent states for a list of compounds.
Tested on: HDAC activity isolated from HeLa nuclear extract
Assay: Fluorimetric HeLa nuclear extract HDAC activity assay
Assay type: biochemical, human
Conditions: only a range of IC50 over the compounds given; read-out: HDAC inhibitory activity (HDAC activity isolated from HeLa nuclear extract) IC50

O=C(/C=C/c1ccc(-c2ccc3ncnc(Nc4ccc(OCc5cccc(F)c5)c(Cl)c4)c3c2)s1)NO [[7], E-3-(5-{4-[3-Chloro-4-(3-fluorobenzyloxy)-phenylamino]quinazolin-6-yl}thiophene-2-yl)-N-hydroxy-acrylamide hydrochloride monohydrate]
IC50: ≥ 0.0465 µM

O=C(/C=C/c1ccc(-c2ccc3ncnc(Nc4ccc(OCc5cccc(F)c5)c(Cl)c4)c3c2)o1)NO [[2], E-3-(5-{4-[3-Chloro-4-(3-fluorobenzyloxy)-phenylamino]quinazolin-6-yl}furan-2-yl)-N-hydroxy-acrylamide hydrochloride monohydrate]
IC50: ≥ 0.0465 µM

O=C(/C=C/c1ccc(-c2ccc3ncnc(Nc4ccc(OCc5cccc(F)c5)c(Cl)c4)c3c2)cc1)NO [[8], (E)-3-(4-(4-(3-chloro-4-(3-fluorobenzyl-oxy)phenylamino)quinazolin-6-yl)phen-yl)-N-hydroxyacrylamide hydrochloride monohydrate]
IC50: ≥ 0.0465 µM
